Publication PMC10593849
Results are given in words; binding and its absence hold for the method and conditions named. In cells and extracts the contact can be indirect. Some entries that bind do so weakly or less than the wild type.

Amino acid sequences for entries named in this document (tags omitted).
UniProt Q00534: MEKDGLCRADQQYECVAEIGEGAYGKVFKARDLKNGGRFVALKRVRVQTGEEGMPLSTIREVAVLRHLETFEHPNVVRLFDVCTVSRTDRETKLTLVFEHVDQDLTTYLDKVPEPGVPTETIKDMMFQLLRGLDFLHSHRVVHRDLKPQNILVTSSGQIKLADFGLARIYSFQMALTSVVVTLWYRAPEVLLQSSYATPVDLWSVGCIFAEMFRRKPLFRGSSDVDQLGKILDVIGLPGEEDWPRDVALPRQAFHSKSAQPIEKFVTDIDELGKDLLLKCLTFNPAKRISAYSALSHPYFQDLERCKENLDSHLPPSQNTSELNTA
UniProt P49841: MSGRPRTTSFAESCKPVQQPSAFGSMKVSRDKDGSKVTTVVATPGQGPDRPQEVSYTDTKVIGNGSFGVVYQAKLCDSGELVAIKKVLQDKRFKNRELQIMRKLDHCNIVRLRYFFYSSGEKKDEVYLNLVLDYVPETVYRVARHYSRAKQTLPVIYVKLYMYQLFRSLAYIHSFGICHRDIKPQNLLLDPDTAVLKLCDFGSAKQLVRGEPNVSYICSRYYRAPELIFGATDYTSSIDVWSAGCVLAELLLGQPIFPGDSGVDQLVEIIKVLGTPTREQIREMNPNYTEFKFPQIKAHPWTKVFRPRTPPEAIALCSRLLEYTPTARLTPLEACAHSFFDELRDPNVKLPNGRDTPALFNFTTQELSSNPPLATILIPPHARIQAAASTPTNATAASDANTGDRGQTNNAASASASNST

Columns and labels:
[1] = target: cyclin-dependent kinase 6 (CDK6) (human (endogenous in MHCC-97L, Hep3B, PLC/PRF/5 and Huh7)) (UniProt Q00534); assay: co-IP; endogenous proteins; protein lysate incubated with anti-CDK6 (D4S8S) or anti-GSK3β (clone 7) antibody and Protein A agarose beads at 4 °C overnight; normal rabbit or mouse IgG as control; MHCC-97L, Hep3B and lenvatinib-resistant HCC cells; immunoblot
[2] = target: GSK3β (human (endogenous in MHCC-97L, Hep3B, PLC/PRF/5 and Huh7)) (UniProt P49841); assay: as above

Substance | binding [1] | binding [2]
GSK3β (from UniProt P49841 1-420) | binds | –
cyclin-dependent kinase 6 (CDK6) (from UniProt Q00534 1-326) | – | binds
